Measured values taken from the supplement of paper PMC4604168 (melanoma cell lines).
The other results are listed elsewhere or left out. Many values rest on one well or one pass, so single values are uncertain.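 Cells were imaged in 1,536-well plates, and nuclei stained with an antibody against cleaved PARP were counted against all DNA-stained nuclei to give the apoptosis fraction. Screening doses were chosen to leave most cells alive, and resting and induced cleaved-PARP levels differ strongly between cell lines.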

Columns and labels:
Assay in all cases: cleaved PARP positive nuclei fraction relative to DMSO control; melanoma cells; higher = more apoptosis
Details in all cases: library dose: low library concentration; 72 h
[1] = system: A101D
[2] = system: A2058
[3] = system: A375
[4] = system: C32
[5] = system: CBRC008 (line from a melanoma biopsy)
[6] = system: CBRC014 (line from a melanoma biopsy)
[7] = system: CBRC016 (line from a melanoma biopsy)
[8] = system: CBRC017 (line from a melanoma biopsy)
[9] = system: CBRC034 (line from a melanoma biopsy)
[10] = system: COLO792
[11] = system: COLO800
[12] = system: COLO829
[13] = system: G361
[14] = system: IPC-298
[15] = system: IST-MEL1
[16] = system: LOXIMVI
[17] = system: MEL-HO

SMILES	cleaved PARP positive nuclei fraction [1] [%]	cleaved PARP positive nuclei fraction [2] [%]	cleaved PARP positive nuclei fraction [3] [%]	cleaved PARP positive nuclei fraction [4] [%]	cleaved PARP positive nuclei fraction [5] [%]	cleaved PARP positive nuclei fraction [6] [%]	cleaved PARP positive nuclei fraction [7] [%]	cleaved PARP positive nuclei fraction [8] [%]	cleaved PARP positive nuclei fraction [9] [%]	cleaved PARP positive nuclei fraction [10] [%]	cleaved PARP positive nuclei fraction [11] [%]	cleaved PARP positive nuclei fraction [12] [%]	cleaved PARP positive nuclei fraction [13] [%]	cleaved PARP positive nuclei fraction [14] [%]	cleaved PARP positive nuclei fraction [15] [%]	cleaved PARP positive nuclei fraction [16] [%]	cleaved PARP positive nuclei fraction [17] [%]
Cn1c(=O)n(-c2ccc(C(C)(C)C#N)cc2)c2c3cc(-c4cnc5ccccc5c4)ccc3ncc21 + CNC(=O)c1cc(Oc2ccc(NC(=O)Nc3ccc(Cl)c(C(F)(F)F)c3)cc2)ccn1 [sorafenib] (first compound 0.004 µM, partner dose 0.4 µM)	64.3	113	157	164	37	83.8	32.9	137	45.7	89.3	63.2	89.6	57.8	206	33.2	133	121
CO[C@H]1C[C@@H]2CC[C@@H](C)[C@@](O)(O2)C(=O)C(=O)N2CCCC[C@H]2C(=O)O[C@H]([C@H](C)C[C@@H]2CC[C@@H](OCCO)[C@H](OC)C2)CC(=O)[C@H](C)/C=C(\C)[C@@H](O)[C@@H](OC)C(=O)[C@H](C)C[C@H](C)/C=C/C=C/C=C/1C [everolimus] + CCc1ccc(CCOc2ccc(CC3SC(=O)NC3=O)cc2)nc1 [pioglitazone] (first compound 0.02 µM, partner dose 2 µM)	55.7	40.3		79.4	45.5	111	70.7	187		225	148	159	130	57.2	121	142	
Cc1cc(Nc2cc(N3CCN(C)CC3)nc(/C=C/c3ccccc3)n2)n[nH]1 + C=C(c1ccc(C(=O)O)cc1)c1cc2c(cc1C)C(C)(C)CCC2(C)C [Bexarotene] (first compound 0.04 µM, partner dose 2 µM)	71.8	97	74.6	40.2	112	103	148	120	27.4	113	117	100	136	187	172	31	75.1
CS(=O)(=O)CCNCc1ccc(-c2ccc3ncnc(Nc4ccc(OCc5cccc(F)c5)c(Cl)c4)c3c2)o1 [lapatinib] + C[C@]1(c2nc3c(C(N)=O)cccc3[nH]2)CCCN1 [Veliparib] (first compound 0.8 µM, partner dose 1.4 µM)	50.1	143	313	217	40	100	121	149	73.1	126	165	133	145	187	60	111	148
CO[C@H]1C[C@@H]2CC[C@@H](C)[C@@](O)(O2)C(=O)C(=O)N2CCCC[C@H]2C(=O)O[C@H]([C@H](C)C[C@@H]2CC[C@@H](OCCO)[C@H](OC)C2)CC(=O)[C@H](C)/C=C(\C)[C@@H](O)[C@@H](OC)C(=O)[C@H](C)C[C@H](C)/C=C/C=C/C=C/1C [everolimus] + CC(C)CCN1c2nc(Nc3cc(F)c(O)c(F)c3)ncc2N(C)C(=O)C1C [BID1870] (first compound 0.02 µM, partner dose 0.2 µM)	72.8	230		298	242	106	66.9	128		252	110	97.7	294	65.2	169	132	
O=C(O)[C@@H]1[O][Sb](=[O])([O][Sb]2(=[O])[O][C@H]([C@H](O)CO)[C@H](O)[C@H](C(=O)O)[O]2)[O][C@H]([C@H](O)CO)[C@@H]1O (some centres not stated) [stibogluconate] + COc1cc2ncnc(Nc3ccc(Oc4ccccc4)cc3)c2cc1OC [SrcI1] (first compound 2 µM, partner dose 2 µM)	39.5	92.8		81.5	98.3	97.9	33.1	108		115	74	182	108	49.5	169	100	
Nc1ncn([C@H]2C[C@H](O)[C@@H](CO)O2)c(=O)n1 [decitabine] + COc1ccc(COc2ccc(Cc3cnc(N)nc3N)cc2OC)cc1 [GW2580] (first compound 0.1 µM, partner dose 1 µM)	30.4	143		79.4	52.7	122	135	101		245	71.1	68.3	114	303	149	51.2	
Cn1c(=O)n(-c2ccc(C(C)(C)C#N)cc2)c2c3cc(-c4cnc5ccccc5c4)ccc3ncc21 + COc1ccc(-c2ccc3c(N4CCOCC4)nc(N4C[C@@H](C)O[C@@H](C)C4)nc3n2)cc1CO [KU0063794] (first compound 0.004 µM, partner dose 0.02 µM)	55.8	97.3		90.6	113	87.5	71.5	113		110	183	139	156	103	176	131	
O=C(O)[C@@H]1[O][Sb](=[O])([O][Sb]2(=[O])[O][C@H]([C@H](O)CO)[C@H](O)[C@H](C(=O)O)[O]2)[O][C@H]([C@H](O)CO)[C@@H]1O (some centres not stated) [stibogluconate] + Nc1ncn([C@H]2C[C@H](O)[C@@H](CO)O2)c(=O)n1 [decitabine] (first compound 2 µM, partner dose 0.1 µM)	99.8	67.7	202	77	92.3	96.5	51.2	120	37.1	23.3	59.9	50.4	87.2	128	138	85.5	71.6
Nc1nc(F)nc2c1ncn2[C@@H]1O[C@H](CO)[C@@H](O)[C@@H]1O [fludarabine] + Cn1nnc2c(C(N)=O)ncn2c1=O [temozolomide] (first compound 0.2 µM, partner dose 2 µM)	91.8	120	9070	69.8	52.6	125	241	93.3	127	52.6	57.3	155	258	98.3	37.7	58.8	119
Cn1c(=O)n(-c2ccc(C(C)(C)C#N)cc2)c2c3cc(-c4cnc5ccccc5c4)ccc3ncc21 + O=C(O)[C@@H]1[O][Sb](=[O])([O][Sb]2(=[O])[O][C@H]([C@H](O)CO)[C@H](O)[C@H](C(=O)O)[O]2)[O][C@H]([C@H](O)CO)[C@@H]1O [stibogluconate] (first compound 0.004 µM, partner dose 2 µM)	208	31.8	116	85.8	33.3	99.9	101	131	39.7	73.3	124	176	111	288	127	166	123
C[C@@H](Oc1cc(-c2cnn(C3CCNCC3)c2)cnc1N)c1c(Cl)ccc(F)c1Cl [Crizotinib] + COCC[n+]1c2c(n(Cc3cnccn3)c1C)C(=O)c1ccccc1C2=O [YM155] (first compound 0.2 µM, partner dose 0.0004 µM)	77.2	50.1	202	75.4	342	87.4	61.1	113	142	64.1	122	129	121	488	136	235	82.3
CNC(=O)c1cc(Oc2ccc(NC(=O)Nc3ccc(Cl)c(C(F)(F)F)c3)cc2)ccn1 [sorafenib] + Nc1ccn([C@@H]2O[C@H](CO)[C@@H](O)C2(F)F)c(=O)n1 [gemcitabine] (first compound 0.4 µM, partner dose 0.0004 µM)	94.9	154	119	80.3	41.1	121	140	158	102	60.1	140	59.9	98	95.3	84.6	152	71.5
CNC(=O)c1cc(Oc2ccc(NC(=O)Nc3ccc(Cl)c(C(F)(F)F)c3)cc2)ccn1 [sorafenib] + CC(C)CCN1c2nc(Nc3cc(F)c(O)c(F)c3)ncc2N(C)C(=O)C1C [BID1870] (first compound 0.4 µM, partner dose 0.2 µM)	39.2	39.7		17.5	102	118	62.2	100		70.2	72.3	65.1	82.9	71.4	33.9	88.3	
CN1CCN(c2ccc3nc(-c4c(N)c5c(F)cccc5[nH]c4=O)[nH]c3c2)CC1 [Dovitinib] + O=S(=O)(c1ccccc1)N(CC(F)(F)F)c1ccc(C(O)(C(F)(F)F)C(F)(F)F)cc1 [T0901317] (first compound 0.1 µM, partner dose 1.4 µM)	18.7	139		75.9	150	109	43.9	149		57.9	49.2	242	105	49.9	45.4	180	
CN1CCN(c2ccc3nc(-c4c(N)c5c(F)cccc5[nH]c4=O)[nH]c3c2)CC1 [Dovitinib] + Nc1ccn([C@@H]2O[C@H](CO)[C@@H](O)C2(F)F)c(=O)n1 [gemcitabine] (first compound 0.1 µM, partner dose 0.0004 µM)	47.8	128	139	87	45.8	107	120	133	52.4	95.2	114	174	72.4	93.6	243	90.5	120
CCCS(=O)(=O)Nc1ccc(F)c(C(=O)c2c[nH]c3ncc(Cl)cc23)c1F + OCc1c[nH]c2ccccc12 [Indole-3-carbinol] (first compound 0.08 µM, partner dose 0.8 µM)	43.2	123	303	98.8	30.4	123	85.5	116	46	84.1	81.2	108	121	167	133	134	174
CS(=O)(=O)CCNCc1ccc(-c2ccc3ncnc(Nc4ccc(OCc5cccc(F)c5)c(Cl)c4)c3c2)o1 [lapatinib] + O=c1cc(-c2cccc3c2Sc2ccccc2S3)oc(N2CCOCC2)c1 [KU55933] (first compound 0.8 µM, partner dose 1 µM)	20.6	86.5		169	128	179	22	144		296	147	133	98.4	98.1	111	140	

In a second layout: entries from further up.
SMILES | cleaved PARP positive nuclei fraction [1] [%] | cleaved PARP positive nuclei fraction [2] [%] | cleaved PARP positive nuclei fraction [3] [%] | cleaved PARP positive nuclei fraction [4] [%] | cleaved PARP positive nuclei fraction [5] [%] | cleaved PARP positive nuclei fraction [6] [%] | cleaved PARP positive nuclei fraction [7] [%] | cleaved PARP positive nuclei fraction [8] [%] | cleaved PARP positive nuclei fraction [9] [%] | cleaved PARP positive nuclei fraction [10] [%] | cleaved PARP positive nuclei fraction [11] [%] | cleaved PARP positive nuclei fraction [12] [%] | cleaved PARP positive nuclei fraction [13] [%] | cleaved PARP positive nuclei fraction [14] [%] | cleaved PARP positive nuclei fraction [15] [%] | cleaved PARP positive nuclei fraction [16] [%] | cleaved PARP positive nuclei fraction [17] [%]
C[C@@H](Oc1cc(-c2cnn(C3CCNCC3)c2)cnc1N)c1c(Cl)ccc(F)c1Cl [Crizotinib] + COCC[n+]1c2c(n(Cc3cnccn3)c1C)C(=O)c1ccccc1C2=O [YM155] (first compound 0.2 µM, partner dose 0.0004 µM) | 77.2 | 50.1 | 202 | 75.4 | 342 | 87.4 | 61.1 | 113 | 142 | 64.1 | 122 | 129 | 121 | 488 | 136 | 235 | 82.3
CN1CCN(c2ccc3nc(-c4c(N)c5c(F)cccc5[nH]c4=O)[nH]c3c2)CC1 [Dovitinib] + Nc1ccn([C@@H]2O[C@H](CO)[C@@H](O)C2(F)F)c(=O)n1 [gemcitabine] (first compound 0.1 µM, partner dose 0.0004 µM) | 47.8 | 128 | 139 | 87 | 45.8 | 107 | 120 | 133 | 52.4 | 95.2 | 114 | 174 | 72.4 | 93.6 | 243 | 90.5 | 120
